This passage reports binding results from article PMC2225445.

Amino acid sequences for entries named in this document (tags omitted). Residues count along the entry.
UniProt O43918, residues 293-354: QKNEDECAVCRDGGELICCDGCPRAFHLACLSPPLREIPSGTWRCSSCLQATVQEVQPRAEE
UniProt P78527: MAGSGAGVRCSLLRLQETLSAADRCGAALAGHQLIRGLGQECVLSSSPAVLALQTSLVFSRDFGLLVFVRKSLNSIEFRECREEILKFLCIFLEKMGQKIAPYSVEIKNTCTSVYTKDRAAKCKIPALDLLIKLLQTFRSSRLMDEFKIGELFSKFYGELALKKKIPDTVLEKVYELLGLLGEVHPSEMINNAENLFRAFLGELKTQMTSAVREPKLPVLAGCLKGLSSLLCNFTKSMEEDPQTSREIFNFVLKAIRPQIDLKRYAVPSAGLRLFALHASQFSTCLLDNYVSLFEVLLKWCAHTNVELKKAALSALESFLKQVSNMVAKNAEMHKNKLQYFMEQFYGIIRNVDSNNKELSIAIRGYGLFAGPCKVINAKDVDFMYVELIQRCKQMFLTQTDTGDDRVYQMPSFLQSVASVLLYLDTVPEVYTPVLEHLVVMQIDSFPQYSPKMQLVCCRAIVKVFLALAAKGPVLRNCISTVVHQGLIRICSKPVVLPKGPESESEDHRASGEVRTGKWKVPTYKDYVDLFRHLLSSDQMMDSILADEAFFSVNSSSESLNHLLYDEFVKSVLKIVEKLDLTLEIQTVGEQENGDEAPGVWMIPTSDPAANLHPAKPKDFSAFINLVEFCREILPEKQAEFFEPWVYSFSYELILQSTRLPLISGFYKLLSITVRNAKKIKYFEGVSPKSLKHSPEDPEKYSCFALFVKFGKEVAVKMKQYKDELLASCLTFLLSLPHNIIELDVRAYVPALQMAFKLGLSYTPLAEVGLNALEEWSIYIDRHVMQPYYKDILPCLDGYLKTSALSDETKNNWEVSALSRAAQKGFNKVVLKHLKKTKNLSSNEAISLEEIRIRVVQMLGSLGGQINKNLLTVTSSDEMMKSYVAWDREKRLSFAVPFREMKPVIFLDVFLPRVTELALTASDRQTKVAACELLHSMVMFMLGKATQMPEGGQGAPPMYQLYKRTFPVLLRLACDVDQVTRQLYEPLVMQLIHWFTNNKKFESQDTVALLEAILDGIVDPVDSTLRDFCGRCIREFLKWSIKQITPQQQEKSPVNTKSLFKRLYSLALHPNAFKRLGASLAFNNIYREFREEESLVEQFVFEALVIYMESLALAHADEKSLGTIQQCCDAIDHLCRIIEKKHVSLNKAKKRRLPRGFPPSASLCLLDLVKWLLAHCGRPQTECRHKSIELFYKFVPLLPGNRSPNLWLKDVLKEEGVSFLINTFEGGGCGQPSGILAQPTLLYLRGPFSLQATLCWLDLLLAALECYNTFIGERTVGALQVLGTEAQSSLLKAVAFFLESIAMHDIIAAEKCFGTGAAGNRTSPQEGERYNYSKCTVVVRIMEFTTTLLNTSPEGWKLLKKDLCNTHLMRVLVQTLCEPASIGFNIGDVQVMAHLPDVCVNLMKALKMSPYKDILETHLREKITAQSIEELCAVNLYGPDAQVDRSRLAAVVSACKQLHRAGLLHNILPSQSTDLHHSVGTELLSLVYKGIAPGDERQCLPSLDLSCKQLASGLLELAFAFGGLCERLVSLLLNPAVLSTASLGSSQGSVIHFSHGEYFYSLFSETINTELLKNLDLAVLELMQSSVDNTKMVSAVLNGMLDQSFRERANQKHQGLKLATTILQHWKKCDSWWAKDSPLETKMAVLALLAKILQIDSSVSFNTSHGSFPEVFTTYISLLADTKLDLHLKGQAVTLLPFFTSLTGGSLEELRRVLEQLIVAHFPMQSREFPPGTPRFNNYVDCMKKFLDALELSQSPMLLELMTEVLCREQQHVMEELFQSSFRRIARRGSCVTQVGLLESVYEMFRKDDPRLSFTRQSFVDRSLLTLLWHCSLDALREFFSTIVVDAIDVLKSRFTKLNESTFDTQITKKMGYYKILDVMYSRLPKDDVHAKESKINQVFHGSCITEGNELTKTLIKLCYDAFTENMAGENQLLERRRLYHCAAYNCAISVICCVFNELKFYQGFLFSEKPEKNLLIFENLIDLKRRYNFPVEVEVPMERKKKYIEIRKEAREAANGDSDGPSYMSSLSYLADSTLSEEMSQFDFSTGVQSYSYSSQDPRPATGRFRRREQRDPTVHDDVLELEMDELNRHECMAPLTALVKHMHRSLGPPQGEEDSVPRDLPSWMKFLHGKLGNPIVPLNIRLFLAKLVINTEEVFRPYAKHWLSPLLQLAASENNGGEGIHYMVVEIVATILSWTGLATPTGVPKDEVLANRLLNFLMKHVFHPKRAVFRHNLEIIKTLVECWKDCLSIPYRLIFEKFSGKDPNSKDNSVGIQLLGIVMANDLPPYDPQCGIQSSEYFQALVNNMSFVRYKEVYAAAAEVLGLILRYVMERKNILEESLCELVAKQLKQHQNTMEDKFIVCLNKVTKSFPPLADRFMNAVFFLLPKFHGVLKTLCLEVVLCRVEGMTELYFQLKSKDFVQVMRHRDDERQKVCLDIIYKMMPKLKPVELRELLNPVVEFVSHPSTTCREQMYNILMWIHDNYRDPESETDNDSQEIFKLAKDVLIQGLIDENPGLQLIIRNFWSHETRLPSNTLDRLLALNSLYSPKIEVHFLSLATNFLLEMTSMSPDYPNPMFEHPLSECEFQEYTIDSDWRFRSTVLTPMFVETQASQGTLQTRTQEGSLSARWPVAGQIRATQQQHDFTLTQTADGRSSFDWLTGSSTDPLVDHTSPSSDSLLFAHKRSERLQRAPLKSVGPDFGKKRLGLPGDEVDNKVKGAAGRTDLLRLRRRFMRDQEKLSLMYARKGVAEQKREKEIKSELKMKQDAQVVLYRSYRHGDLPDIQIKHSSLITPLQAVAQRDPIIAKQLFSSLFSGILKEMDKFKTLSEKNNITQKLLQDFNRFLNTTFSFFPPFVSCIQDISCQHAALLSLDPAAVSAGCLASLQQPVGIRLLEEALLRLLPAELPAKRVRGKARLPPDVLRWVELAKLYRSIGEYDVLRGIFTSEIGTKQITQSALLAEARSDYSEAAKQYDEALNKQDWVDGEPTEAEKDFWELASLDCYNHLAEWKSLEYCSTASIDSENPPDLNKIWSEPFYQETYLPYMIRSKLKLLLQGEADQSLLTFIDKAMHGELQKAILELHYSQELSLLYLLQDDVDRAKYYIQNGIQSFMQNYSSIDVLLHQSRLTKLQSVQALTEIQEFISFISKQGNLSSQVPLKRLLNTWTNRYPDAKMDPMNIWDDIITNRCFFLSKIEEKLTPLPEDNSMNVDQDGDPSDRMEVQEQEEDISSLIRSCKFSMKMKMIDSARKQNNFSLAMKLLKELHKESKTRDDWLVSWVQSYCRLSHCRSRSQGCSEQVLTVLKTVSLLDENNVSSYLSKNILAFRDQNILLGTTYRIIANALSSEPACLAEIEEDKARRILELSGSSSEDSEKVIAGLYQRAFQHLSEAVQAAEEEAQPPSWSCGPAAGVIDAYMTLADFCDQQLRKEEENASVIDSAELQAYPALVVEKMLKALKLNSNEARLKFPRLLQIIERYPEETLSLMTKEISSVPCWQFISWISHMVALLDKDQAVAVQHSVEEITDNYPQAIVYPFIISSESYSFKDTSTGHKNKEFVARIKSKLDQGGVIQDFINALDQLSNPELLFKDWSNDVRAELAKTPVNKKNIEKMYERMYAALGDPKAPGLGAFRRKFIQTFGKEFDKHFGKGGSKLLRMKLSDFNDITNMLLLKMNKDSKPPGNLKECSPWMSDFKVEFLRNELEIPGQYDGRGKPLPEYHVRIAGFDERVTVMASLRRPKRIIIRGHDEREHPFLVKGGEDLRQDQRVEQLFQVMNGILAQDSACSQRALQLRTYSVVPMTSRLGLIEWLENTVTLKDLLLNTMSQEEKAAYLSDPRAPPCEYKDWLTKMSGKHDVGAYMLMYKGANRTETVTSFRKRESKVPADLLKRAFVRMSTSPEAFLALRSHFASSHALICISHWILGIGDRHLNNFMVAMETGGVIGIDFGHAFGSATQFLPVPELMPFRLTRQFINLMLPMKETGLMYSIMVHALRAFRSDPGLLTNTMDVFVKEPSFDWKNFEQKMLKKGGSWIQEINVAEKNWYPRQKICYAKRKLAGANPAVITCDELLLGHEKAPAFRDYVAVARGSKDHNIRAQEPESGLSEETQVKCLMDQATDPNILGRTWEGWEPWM
UniProt P12956: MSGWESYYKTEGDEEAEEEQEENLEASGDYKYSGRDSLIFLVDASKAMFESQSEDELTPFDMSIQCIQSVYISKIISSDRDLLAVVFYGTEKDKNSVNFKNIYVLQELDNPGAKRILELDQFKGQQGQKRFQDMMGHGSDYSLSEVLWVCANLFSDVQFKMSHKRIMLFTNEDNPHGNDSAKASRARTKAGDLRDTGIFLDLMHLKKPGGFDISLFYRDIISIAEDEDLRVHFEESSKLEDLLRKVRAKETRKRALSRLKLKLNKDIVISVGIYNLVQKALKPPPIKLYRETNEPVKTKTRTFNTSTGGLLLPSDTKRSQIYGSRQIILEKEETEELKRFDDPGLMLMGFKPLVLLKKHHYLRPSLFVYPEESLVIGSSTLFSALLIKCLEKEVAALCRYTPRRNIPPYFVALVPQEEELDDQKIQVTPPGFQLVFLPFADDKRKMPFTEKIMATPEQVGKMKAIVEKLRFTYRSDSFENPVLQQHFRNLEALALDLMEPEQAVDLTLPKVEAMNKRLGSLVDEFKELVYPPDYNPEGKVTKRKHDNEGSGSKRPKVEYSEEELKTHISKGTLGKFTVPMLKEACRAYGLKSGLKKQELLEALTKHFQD
UniProt P13010: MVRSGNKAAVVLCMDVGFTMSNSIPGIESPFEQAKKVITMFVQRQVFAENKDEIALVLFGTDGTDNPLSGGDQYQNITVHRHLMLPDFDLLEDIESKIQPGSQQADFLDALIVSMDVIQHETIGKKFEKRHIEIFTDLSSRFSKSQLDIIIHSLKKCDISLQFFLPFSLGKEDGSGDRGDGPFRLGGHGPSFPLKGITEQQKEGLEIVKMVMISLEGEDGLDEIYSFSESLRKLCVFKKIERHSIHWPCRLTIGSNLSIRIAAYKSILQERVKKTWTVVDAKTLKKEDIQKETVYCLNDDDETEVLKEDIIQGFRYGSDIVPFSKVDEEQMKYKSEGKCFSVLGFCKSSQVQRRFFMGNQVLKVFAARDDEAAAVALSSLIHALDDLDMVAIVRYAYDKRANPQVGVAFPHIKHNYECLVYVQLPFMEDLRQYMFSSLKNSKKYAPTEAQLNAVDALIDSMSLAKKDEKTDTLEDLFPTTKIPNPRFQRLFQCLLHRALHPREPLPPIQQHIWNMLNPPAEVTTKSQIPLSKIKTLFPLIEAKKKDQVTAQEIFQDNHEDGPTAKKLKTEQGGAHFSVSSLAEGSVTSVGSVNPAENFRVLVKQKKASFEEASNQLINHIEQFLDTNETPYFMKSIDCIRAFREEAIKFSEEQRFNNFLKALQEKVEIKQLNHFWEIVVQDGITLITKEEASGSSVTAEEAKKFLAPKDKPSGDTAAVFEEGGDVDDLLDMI

Results are given in words; binding and its absence hold for the method and conditions named. In cells and extracts the contact can be indirect. These calls come from enrichment with a bait or labelling near it, and not all partners need be listed.

The test has as its target GST-AIRE-PHD1 (human) (UniProt O43918). The experiment in a line: affinity purification with mass spectrometry; 20-25 ug GST-fusion protein on 25 ul glutathione sepharose beads, 50-100 ug THP-1 nuclear extract, buffer B1 (10 mM HEPES pH 8.0, 150 mM NaCl, 0.7 mM MgCl2, 12.5% glycerol, 0.1 mM EDTA, 25 uM ZnCl2, 0.5 mM DTT), overnight 4 C; bands from Coomassie-stained SDS-PAGE identified by MALDI-TOF; only the target purified.

Regarding “DNA-PK catalytic subunit (DNA-PKcs), THP-1 (from UniProt P78527 1-4128) (enzyme)”, the binding result was “binds”. On to Ku70 (from UniProt P12956 1-609), for which the binding result is listed as “binds”. In the case of Ku80 (from UniProt P13010 1-732), the binding result is recorded as “binds”.
